This assay addresses T1, arginase 1 (human (endogenous in granulocytes of sepsis patients)) (UniProt P05089).
T1 sequence: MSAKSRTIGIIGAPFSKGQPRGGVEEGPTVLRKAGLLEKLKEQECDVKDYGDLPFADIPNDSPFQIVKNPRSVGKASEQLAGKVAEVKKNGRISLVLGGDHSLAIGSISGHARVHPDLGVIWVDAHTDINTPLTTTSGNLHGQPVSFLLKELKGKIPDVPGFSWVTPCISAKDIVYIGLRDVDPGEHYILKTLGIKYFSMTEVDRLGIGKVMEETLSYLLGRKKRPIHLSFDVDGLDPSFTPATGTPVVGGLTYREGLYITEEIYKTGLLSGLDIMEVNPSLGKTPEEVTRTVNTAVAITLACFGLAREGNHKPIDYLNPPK
Put plainly: co-IP; protein extracts of granulocytes isolated from sepsis patients (cell lysis buffer with protease inhibitors); antibodies specific to MMP8, MMP9, ARG1 and CXCL8 used to pull down the respective proteins; immunoprecipitates analysed by Western blot.

Experimental findings from paper PMC11575963 are described below.

Results are given in words; binding and its absence hold for the method and conditions named. In cells and extracts the contact can be indirect. Binding calls can cover weak binding; strength is not graded here.

C–X–C motif chemokine ligand 8: the binding entry is recorded as “binds”.
